According to patent US20180244777A1 (NUMAB THERAPEUTICS, published 2018):
Residue numbers refer to the chain shown, from its start. Results are given in words; binding and its absence hold for the method and conditions named. Some results given as binding are weak or reduced against the parent protein; the word gives no strength.

B1: clone-02 (antibody, V domains shown)
VH: QSLEESGGRLVTPGTPLTLTCTVSGFPLSAYAMIWVRQAPGKGLEWIGMIIRSGTVYYANWAKGRFTISKTSTTVDLKITSPTTEDTATYFCARRHYNADGYPIGIGDLWGPGTLVTVSS
VL: AQVLTQTPSSVSAVVGGTVTISCQSSESVYSNNRLSWFQQKPGQPPKLLIYSASTLASGVPSRFKGSGSGTQFTLTITDLECDDAATYFCQGEFSCSSVDCFSFGGGTEVVVKG
notes: Recombinant rabbit IgG; also called Clone 2
B2: clone-03 (antibody, V domains shown)
VH: QSLEESGGRLVTPGTPLTLTCTVSGFPLNRYAMLWVRQAPGKGLEWIGLITRADKKYYASWAKGRFTISKTSTTVDLEITGPTTEDTATYFCARRHYNTDGYPIAIGDLWGPGTLVTVSS
VL: AQVLTQTPSSVSAAVGGTVTISCQSNENIYSNNRLSWFQQKPGQPPNQLIYSASSLASGVPSRFKGSGSGTQFTLTISDLECDDAATYYCQGEFNCNSADCFTFGGGTEVVVKG
notes: Recombinant rabbit IgG; also called Clone 3
B3: clone-04 (antibody, V domains shown)
VH: QSLEESGGRLVKPDETLTLTCTVSGFPLSSYAMGWFRQAPGKGLEWIGMILRSDNTYYASWAKGRFTISKTSTTVDLKITSPTTEDTATYFCARRHYNASGNPIAIGDLWGPGTLVTVSS
VL: AQVLTQTPSSVSAAVGGTVTINCQSSQSVYNNNRLSWFQQKPGQPPKLLIYTTSSLASGVPSRFKGSGSGTEFTLTISDLECADAATYYCQGEFSCSRADCFNFGGGTEVVVKG
notes: Recombinant rabbit IgG; also called Clone 4
B4: clone-06 (antibody, V domains shown)
VH: QSVEESGGRLVTPGTPLTLTCTVSGFPLSSYAMIWVRQAPGKGLEWIGMILRAGNIYYASWVKGRVTISKTSTTVDLKITSPTTEDTATYFCARRHYNREGYPIGIGDLWGPGTLVTVSS
VL: B3 VL with N22S, Q27E, N33K, L48Q, T53A, E72Q, A83D, S95T, R98N, N103T
notes: Recombinant rabbit IgG; also called Clone 6

These binders were tested against HumanCD3 target sequence (SEQ ID NO: 46), as library of overlapping linear and CLIPS peptides (human) (assay: CLIPS and linear peptide library ELISA).

| Binder | binding |
| --- | --- |
| B1 | binds |
| B2 | binds |
| B3 | binds |
| B4 | binds |
